Results are given in words; binding and its absence hold for the method and conditions named. Binding seen in cells or lysates may run through a third protein. Some entries that bind do so weakly or less than the wild type. For part of these data: Where a sequence is shown, tags or fusion partners need not be part of it. Each block holds one binder with its values, some of them ahead of it.
How the values were obtained:
[1] = biological target: T1, Myc-tagged MAEL with the MAEL domain (aa 130-326) deleted (UniProt Q96JY0); test: co-IP; HEK293 cells co-transfected with HA-ILKAP and Myc-tagged full length or deletion mutants of MAEL, lysates (800 ug) precipitated with anti-Myc antibody, blot with anti-HA and anti-Myc
T1 sequence: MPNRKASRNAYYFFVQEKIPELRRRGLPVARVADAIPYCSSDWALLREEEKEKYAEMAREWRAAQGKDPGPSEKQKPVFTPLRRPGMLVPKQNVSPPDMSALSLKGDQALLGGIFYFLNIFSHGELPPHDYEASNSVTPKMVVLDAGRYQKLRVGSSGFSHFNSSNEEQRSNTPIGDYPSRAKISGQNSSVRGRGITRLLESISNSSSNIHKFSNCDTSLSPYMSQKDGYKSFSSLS

HA-tagged ILKAP = biological target: T2, HA-tagged ILKAP (UniProt Q9H0C8); test: co-IP; HEK293 cells co-transfected with Myc-MAEL and HA-ILKAP, lysates (800 ug) at 24 h precipitated with anti-HA antibody or control IgG, blot with anti-Myc and anti-HA
T2 sequence: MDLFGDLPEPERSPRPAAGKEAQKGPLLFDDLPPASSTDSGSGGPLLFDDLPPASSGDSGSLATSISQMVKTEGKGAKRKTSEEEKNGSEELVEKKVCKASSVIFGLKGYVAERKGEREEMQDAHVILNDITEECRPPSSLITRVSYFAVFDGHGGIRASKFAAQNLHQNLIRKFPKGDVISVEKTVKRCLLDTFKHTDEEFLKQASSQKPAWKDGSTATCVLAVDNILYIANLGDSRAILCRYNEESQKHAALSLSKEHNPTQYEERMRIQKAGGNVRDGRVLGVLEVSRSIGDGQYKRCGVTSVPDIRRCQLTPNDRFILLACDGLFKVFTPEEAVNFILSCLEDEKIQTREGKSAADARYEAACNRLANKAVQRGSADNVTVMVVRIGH

[2] = biological target: T3, endogenous ILKAP protein (human (endogenous in AGS)) (UniProt Q9H0C8); test: co-IP; endogenous proteins, AGS cell lysates (800 ug) precipitated with anti-ILKAP antibody or control IgG, blot with anti-MAEL and anti-ILKAP
T3 sequence: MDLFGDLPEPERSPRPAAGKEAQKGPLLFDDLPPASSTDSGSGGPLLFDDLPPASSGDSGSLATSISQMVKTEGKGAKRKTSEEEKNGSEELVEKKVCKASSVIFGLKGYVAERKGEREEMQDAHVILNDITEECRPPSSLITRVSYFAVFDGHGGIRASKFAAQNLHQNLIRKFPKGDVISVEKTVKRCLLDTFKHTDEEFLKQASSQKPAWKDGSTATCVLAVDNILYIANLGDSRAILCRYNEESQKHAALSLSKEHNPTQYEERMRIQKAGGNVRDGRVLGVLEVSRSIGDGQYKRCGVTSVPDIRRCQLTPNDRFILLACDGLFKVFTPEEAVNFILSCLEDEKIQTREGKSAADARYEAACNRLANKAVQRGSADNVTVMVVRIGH

binding [1]: no binding
B1: HA-tagged ILKAP (enzyme, UniProt Q9H0C8 1-392)
chain: MDLFGDLPEPERSPRPAAGKEAQKGPLLFDDLPPASSTDSGSGGPLLFDDLPPASSGDSGSLATSISQMVKTEGKGAKRKTSEEEKNGSEELVEKKVCKASSVIFGLKGYVAERKGEREEMQDAHVILNDITEECRPPSSLITRVSYFAVFDGHGGIRASKFAAQNLHQNLIRKFPKGDVISVEKTVKRCLLDTFKHTDEEFLKQASSQKPAWKDGSTATCVLAVDNILYIANLGDSRAILCRYNEESQKHAALSLSKEHNPTQYEERMRIQKAGGNVRDGRVLGVLEVSRSIGDGQYKRCGVTSVPDIRRCQLTPNDRFILLACDGLFKVFTPEEAVNFILSCLEDEKIQTREGKSAADARYEAACNRLANKAVQRGSADNVTVMVVRIGH

binding (HA-tagged ILKAP): binds
B2: Myc-tagged MAEL (full length) (protein, UniProt Q96JY0 1-434)
chain: MPNRKASRNAYYFFVQEKIPELRRRGLPVARVADAIPYCSSDWALLREEEKEKYAEMAREWRAAQGKDPGPSEKQKPVFTPLRRPGMLVPKQNVSPPDMSALSLKGDQALLGGIFYFLNIFSHGELPPHCEQRFLPCEIGCVKYSLQEGIMADFHSFINPGEIPRGFRFHCQAASDSSHKIPISNFERGHNQATVLQNLYRFIHPNPGNWPPIYCKSDDRTRVNWCLKHMAKASEIRQDLQLLTVEDLVVGIYQQKFLKEPSKTWIRSLLDVAMWDYSSNTRCKWHEENDILFCALAVCKKIAYCISNSLATLFGIQLTEAHVPLQDYEASNSVTPKMVVLDAGRYQKLRVGSSGFSHFNSSNEEQRSNTPIGDYPSRAKISGQNSSVRGRGITRLLESISNSSSNIHKFSNCDTSLSPYMSQKDGYKSFSSLS

binding [2]: binds
B3: endogenous MAEL protein (protein, UniProt Q96JY0 1-434)
chain: MPNRKASRNAYYFFVQEKIPELRRRGLPVARVADAIPYCSSDWALLREEEKEKYAEMAREWRAAQGKDPGPSEKQKPVFTPLRRPGMLVPKQNVSPPDMSALSLKGDQALLGGIFYFLNIFSHGELPPHCEQRFLPCEIGCVKYSLQEGIMADFHSFINPGEIPRGFRFHCQAASDSSHKIPISNFERGHNQATVLQNLYRFIHPNPGNWPPIYCKSDDRTRVNWCLKHMAKASEIRQDLQLLTVEDLVVGIYQQKFLKEPSKTWIRSLLDVAMWDYSSNTRCKWHEENDILFCALAVCKKIAYCISNSLATLFGIQLTEAHVPLQDYEASNSVTPKMVVLDAGRYQKLRVGSSGFSHFNSSNEEQRSNTPIGDYPSRAKISGQNSSVRGRGITRLLESISNSSSNIHKFSNCDTSLSPYMSQKDGYKSFSSLS

Source: PMC5768331
